Data from patent US20210052580A1 (ST IP Holding AG, priority 2018, published 2021).

Test system: male Syrian Golden Hamsters
Details: Days −3 to 28
Method: Twenty-four (24) male Syrian Golden Hamsters were used in the study. Mucositis was induced by giving an acute radiation dose of 40 Gy directed to the left buccal cheek pouch on Day 0. Mucositis was evaluated clinically starting on Day 6 and continuing on alternate days until Day 28.
Mucositis was scored visually by comparison to a validated photographic scale, ranging from 0 for normal, to 5 for severe ulceration (clinical scoring). In descriptive terms, this scale is defined as described in Table 7 below: […]
A mucositis score of 3 or greater indicates ulcerative mucositis, a clinically significant threshold.
Statistical significance of observed differences was calculated using chi-squared analysis.
An analysis of the severity of mucositis was performed using the Mann-Whitney rank sum analysis to compare the visual mucositis scores for Groups 2 and 3 to the vehicle control group (Group 1) on each day of the analysis. In this analysis, 2 consecutive days of significant reduction in the mucositis score are generally required before it is regarded as clinically meaningful.
The significance of group differences observed in daily mucositis scores was determined using the Mann-Whitney rank sum test. This nonparametric statistic is appropriate for the visual mucositis scoring scale. The p-values for each calculation are shown. “x” denotes significant difference in mucositis scores. […]

Cc1c(-c2cnccn2)ssc1=S [Neat oltipraz, 4-methyl-5-(pyrazin-2-yl)-3H-1,2-dithiole-3-thione]
percent body weight change: gained weight at a slower rate than those administered placebo
